Source: publication PMC12786370
No constants are given. Whether binding was seen depends on the method and setting. In cells and extracts the contact can be indirect. Some results given as binding are weak or reduced against the parent protein; the word gives no strength. Tags and fused reporters may be left off the sequences shown.

Amino acid sequences for entries named in this document (tags omitted).
UniProt P67809: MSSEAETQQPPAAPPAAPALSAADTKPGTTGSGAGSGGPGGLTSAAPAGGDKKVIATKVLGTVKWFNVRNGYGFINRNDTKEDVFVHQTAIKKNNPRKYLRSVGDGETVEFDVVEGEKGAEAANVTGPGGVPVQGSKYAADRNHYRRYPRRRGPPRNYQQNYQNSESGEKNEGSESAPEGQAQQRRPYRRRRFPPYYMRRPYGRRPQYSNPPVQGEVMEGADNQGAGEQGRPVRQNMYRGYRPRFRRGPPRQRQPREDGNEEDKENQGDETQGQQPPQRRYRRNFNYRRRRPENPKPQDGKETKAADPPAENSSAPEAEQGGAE

Legend:
[1] = biological target: T1, CXCL2 lacking the signal peptide (ΔCXCL2), Flag-tagged, overexpressed in HCC cells (UniProt P19875); test: co-IP; CXCL2/ΔCXCL2 overexpression HCC cells, precipitated with anti-Flag antibody
T1 sequence: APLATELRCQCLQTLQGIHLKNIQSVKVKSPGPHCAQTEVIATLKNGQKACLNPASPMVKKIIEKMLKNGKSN

[2] = biological target: T2, C-X-C motif chemokine ligand 2 (CXCL2), Flag-tagged, full length, overexpressed in HCC cells (UniProt P19875); test: as above
T2 sequence: T1 sequence

Y-Box Binding Protein 1 (YBX1) in HCC cells (from UniProt P67809 1-324)
binding [1]: binds | binding [2]: binds
